Experimental data as given in publication PMC11628653.
These are yes or no findings as the source states them, for the method shown. In cells and extracts the contact can be indirect.

Sequences of proteins named here, by UniProt entry; tags and fusion partners are left off.
UniProt P61073: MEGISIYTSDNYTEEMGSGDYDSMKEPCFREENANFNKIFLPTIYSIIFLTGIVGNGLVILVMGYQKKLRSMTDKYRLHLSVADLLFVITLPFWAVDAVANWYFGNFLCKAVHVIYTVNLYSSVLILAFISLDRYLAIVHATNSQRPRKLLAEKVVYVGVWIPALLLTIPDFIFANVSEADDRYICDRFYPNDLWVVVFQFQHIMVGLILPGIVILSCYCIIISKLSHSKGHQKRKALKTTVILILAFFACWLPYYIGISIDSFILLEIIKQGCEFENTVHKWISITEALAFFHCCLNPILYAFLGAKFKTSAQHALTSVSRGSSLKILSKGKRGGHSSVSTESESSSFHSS
UniProt P25106: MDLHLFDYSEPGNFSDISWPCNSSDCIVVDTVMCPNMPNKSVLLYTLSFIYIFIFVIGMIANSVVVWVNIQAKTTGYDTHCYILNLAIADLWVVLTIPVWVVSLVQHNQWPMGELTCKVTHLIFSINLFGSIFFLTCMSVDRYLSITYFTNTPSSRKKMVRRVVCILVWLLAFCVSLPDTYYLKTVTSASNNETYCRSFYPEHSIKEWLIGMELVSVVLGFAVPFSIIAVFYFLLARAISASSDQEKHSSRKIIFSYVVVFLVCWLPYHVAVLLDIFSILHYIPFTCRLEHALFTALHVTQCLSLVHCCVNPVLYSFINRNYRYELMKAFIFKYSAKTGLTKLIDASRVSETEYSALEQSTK

Assays:
[1] = target: C-X-C motif chemokine receptor type 4 (CXCR4) (human (endogenous in platelets)) (UniProt P61073); assay: condition: only platelets activated with 5 uM ADP, 1 ug/mL CRP-XL or 1 U/mL thrombin, without ACKR3 agonist; proximity ligation; Duolink PLA on washed human platelets centrifuged onto coverslips, fluorescence microscopy read-out; platelets treated with 5 uM ADP, 1 ug/mL CRP-XL or 1 U/mL thrombin for 30 min at RT, no ACKR3 agonist
[2] = target: C-X-C motif chemokine receptor type 4 (CXCR4) (human (endogenous in platelets)) (UniProt P61073); assay: condition: only platelets treated with 1 ug/mL CXCL12 or 1 ug/mL CXCL14, without ACKR3 agonist; proximity ligation; Duolink PLA on washed human platelets, flow cytometry read-out; platelets treated with 1 ug/mL CXCL12 or 1 ug/mL CXCL14 (also 1 ug/mL MIF) for 15 min at RT, no ACKR3 agonist
[3] = target: C-X-C motif chemokine receptor type 4 (CXCR4) (human (endogenous in platelets)) (UniProt P61073); assay: condition: only platelets activated with 5 uM ADP, 1 ug/mL CRP-XL or 1 U/mL thrombin, without ACKR3 agonist; proximity ligation; Duolink PLA on washed human platelets, flow cytometry read-out; platelets treated with 5 uM ADP, 1 ug/mL CRP-XL or 1 U/mL thrombin for 30 min at RT, no ACKR3 agonist
[4] = target: C-X-C motif chemokine receptor type 4 (CXCR4) (human (endogenous in platelets)) (UniProt P61073); assay: condition: only platelets treated with 1 ug/mL CXCL12 or 1 ug/mL CXCL14, without ACKR3 agonist; proximity ligation; Duolink PLA on washed human platelets centrifuged onto coverslips, fluorescence microscopy read-out; platelets treated with 1 ug/mL CXCL12 or 1 ug/mL CXCL14 (also 1 ug/mL MIF) for 15 min at RT, no ACKR3 agonist

- binding [1]: no binding
- binding [2]: no binding
- binding [3]: no binding
- binding [4]: no binding
Substance: atypical chemokine receptor 3 (ACKR3) (from UniProt P25106 1-362)
